The text below walks through data of the M2OR odorant receptor database.

Chains of the proteins cited; added tags and fusions are not shown. A line that says so, or that is headed by a name, gives the form on record, which may keep a tag or linker.
O14J1, as listed by the source: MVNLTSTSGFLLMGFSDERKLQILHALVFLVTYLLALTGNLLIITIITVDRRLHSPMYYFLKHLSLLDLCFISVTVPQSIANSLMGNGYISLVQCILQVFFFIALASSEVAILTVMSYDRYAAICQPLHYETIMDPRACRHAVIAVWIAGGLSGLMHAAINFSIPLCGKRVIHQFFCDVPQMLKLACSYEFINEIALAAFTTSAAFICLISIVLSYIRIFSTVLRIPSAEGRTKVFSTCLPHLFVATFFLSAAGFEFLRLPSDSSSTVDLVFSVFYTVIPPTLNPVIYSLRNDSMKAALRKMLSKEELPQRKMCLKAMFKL

Conditions in all cases: stereoisomer not certain
One test has as its system T1, O13C5.
T1 sequence (whole entry): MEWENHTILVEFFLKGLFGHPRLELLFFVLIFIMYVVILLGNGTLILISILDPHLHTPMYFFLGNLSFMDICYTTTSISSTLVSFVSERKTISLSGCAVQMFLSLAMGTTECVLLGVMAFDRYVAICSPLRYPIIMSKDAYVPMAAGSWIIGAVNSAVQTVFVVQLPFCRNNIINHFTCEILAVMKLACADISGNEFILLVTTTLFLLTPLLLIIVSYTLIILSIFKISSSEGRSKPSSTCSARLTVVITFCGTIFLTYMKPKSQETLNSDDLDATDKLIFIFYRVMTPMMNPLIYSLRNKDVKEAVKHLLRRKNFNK
In short, it runs like this:
(§1)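 Each entry records the cell line, G-protein, co-transfected protein and tags used. Methods varied with the source, often transient luciferase assays in mammalian cell lines. A receptor–molecule pair is called responsive (active) if the original authors judged its signal statistically different from baseline and non-responsive (inactive) otherwise.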

A further test has as its system T2, O13C7.
T2 sequence (whole entry): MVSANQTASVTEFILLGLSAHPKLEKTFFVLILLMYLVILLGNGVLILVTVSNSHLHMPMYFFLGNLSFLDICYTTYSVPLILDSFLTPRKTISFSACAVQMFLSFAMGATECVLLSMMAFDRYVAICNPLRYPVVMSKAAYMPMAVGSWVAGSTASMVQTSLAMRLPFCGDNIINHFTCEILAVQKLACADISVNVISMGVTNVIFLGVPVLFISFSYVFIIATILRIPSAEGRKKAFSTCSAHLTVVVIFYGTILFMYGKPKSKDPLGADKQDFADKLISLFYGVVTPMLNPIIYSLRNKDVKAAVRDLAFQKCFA
The gist of the method:
as §1

A further test concerns T3, O13C9.
T3 sequence (whole entry): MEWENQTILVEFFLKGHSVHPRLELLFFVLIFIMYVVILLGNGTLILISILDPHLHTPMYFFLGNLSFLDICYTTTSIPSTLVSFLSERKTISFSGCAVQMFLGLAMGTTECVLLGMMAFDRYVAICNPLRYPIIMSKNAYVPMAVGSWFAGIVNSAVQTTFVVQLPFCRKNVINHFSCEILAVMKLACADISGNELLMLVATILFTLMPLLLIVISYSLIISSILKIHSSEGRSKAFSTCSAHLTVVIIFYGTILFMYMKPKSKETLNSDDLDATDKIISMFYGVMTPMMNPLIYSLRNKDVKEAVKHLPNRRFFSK
The gist of the method:
as §1

Test [1] deals with T4, O13D1.
T4 sequence (whole entry): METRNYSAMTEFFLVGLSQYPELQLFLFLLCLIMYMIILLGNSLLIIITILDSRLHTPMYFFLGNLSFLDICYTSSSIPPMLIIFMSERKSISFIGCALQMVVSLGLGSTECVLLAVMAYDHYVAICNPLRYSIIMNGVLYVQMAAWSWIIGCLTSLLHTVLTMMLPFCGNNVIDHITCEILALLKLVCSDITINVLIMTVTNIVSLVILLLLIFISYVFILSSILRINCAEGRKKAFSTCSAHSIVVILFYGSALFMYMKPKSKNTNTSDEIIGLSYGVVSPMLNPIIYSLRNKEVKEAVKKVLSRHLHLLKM
The gist of the method: as §1

Test [2] has as its system T5, O13D1.
T5 sequence (whole entry): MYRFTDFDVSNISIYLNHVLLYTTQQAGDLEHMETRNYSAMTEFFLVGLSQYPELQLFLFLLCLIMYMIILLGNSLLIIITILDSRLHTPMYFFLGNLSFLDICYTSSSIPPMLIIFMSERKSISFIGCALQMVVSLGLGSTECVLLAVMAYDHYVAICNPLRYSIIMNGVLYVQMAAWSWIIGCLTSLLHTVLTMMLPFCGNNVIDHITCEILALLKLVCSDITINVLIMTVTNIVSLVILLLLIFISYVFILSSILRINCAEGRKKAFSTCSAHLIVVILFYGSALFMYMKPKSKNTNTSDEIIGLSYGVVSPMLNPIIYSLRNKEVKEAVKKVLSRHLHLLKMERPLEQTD
The gist of the method:
as §1
The source holds these as a separate data set.

The next test deals with T6, O13F1.
T6 sequence (whole entry): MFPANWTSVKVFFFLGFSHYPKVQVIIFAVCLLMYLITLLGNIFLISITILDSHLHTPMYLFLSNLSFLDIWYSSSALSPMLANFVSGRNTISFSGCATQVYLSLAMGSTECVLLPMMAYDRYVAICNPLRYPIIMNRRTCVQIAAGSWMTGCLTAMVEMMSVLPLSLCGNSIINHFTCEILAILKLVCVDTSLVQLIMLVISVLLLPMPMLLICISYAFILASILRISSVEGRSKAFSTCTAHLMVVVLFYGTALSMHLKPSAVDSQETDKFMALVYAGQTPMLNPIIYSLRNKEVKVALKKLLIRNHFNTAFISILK
In short, it runs like this:
as §1

In another test the test system is T7, O13G1.
T7 sequence (whole entry): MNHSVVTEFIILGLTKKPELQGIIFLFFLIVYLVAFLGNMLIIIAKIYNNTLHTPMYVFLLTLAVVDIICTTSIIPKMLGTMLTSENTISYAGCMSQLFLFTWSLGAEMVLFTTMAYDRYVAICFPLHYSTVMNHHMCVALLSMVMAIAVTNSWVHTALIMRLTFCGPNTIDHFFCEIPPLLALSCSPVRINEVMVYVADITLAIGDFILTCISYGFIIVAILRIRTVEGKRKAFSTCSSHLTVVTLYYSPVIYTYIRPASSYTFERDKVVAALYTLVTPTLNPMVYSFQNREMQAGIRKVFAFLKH
The gist of the method: as §1

The subject of the next test is T8, O13J1.
T8 sequence (whole entry): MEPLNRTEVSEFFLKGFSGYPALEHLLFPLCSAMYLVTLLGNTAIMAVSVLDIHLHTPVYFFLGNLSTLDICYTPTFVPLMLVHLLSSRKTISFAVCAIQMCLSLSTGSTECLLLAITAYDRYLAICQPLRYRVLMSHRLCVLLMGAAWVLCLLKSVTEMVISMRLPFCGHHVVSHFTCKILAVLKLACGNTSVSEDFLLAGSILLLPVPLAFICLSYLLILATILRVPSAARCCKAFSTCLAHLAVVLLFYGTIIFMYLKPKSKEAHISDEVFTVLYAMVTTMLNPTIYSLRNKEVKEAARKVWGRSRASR
In short, it runs like this: as §1

For another test, the system named is T9, O14A2.
T9 sequence (whole entry): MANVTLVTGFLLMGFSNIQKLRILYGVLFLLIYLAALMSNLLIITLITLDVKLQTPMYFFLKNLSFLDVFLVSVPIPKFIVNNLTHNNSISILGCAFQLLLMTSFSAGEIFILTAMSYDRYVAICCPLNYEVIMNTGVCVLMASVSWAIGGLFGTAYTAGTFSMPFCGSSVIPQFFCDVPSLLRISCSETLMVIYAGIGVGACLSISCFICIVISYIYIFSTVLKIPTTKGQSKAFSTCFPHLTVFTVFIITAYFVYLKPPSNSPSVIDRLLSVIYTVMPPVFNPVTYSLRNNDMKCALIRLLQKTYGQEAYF
The gist of the method:
as §1

For the next test, the system named is T10, O14AG.
T10 sequence (whole entry): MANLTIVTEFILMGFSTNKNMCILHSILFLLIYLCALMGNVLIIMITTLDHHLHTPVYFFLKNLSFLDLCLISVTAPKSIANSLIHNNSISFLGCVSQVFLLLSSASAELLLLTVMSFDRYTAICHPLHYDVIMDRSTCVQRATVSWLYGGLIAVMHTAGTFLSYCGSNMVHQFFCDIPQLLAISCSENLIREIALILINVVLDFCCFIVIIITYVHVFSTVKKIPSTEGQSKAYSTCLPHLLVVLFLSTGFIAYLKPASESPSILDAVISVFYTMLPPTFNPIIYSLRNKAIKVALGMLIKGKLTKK
The gist of the method: as §1

The next test relates to T11, O14CZ.
T11 sequence (whole entry): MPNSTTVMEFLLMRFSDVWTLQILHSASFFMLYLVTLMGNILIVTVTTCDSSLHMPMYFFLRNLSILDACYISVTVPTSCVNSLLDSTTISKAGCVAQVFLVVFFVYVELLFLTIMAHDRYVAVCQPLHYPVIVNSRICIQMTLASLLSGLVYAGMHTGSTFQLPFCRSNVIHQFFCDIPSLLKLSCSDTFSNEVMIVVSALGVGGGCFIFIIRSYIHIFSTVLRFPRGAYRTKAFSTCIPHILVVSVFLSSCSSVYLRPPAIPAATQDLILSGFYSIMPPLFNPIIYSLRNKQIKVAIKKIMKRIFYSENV
In short, it runs like this:
as §1

The test system of the next test is T12, O14I1.
T12 sequence (whole entry): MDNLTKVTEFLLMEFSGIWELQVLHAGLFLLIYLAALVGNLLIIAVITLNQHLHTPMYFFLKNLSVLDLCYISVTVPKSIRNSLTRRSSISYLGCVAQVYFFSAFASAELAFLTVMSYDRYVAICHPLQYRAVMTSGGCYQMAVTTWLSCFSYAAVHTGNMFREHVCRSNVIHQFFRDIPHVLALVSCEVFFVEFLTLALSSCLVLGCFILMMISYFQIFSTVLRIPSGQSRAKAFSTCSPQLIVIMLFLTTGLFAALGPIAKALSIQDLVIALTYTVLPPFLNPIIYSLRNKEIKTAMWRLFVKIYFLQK
The gist of the method: as §1

Test [3] has as its system T13, O14J1.
T13 sequence (whole entry): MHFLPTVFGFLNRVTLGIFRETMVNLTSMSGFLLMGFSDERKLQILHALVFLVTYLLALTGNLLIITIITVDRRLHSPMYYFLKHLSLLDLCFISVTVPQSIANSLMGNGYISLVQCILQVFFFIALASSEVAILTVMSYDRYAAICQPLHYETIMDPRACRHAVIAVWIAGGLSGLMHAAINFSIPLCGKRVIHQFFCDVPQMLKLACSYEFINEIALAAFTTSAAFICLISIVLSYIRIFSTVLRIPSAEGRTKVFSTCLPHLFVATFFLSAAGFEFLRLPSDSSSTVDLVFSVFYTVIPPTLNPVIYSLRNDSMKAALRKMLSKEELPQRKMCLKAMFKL
The gist of the method:
as §1

In the next test the test system is T14, O14K1.
T14 sequence (whole entry): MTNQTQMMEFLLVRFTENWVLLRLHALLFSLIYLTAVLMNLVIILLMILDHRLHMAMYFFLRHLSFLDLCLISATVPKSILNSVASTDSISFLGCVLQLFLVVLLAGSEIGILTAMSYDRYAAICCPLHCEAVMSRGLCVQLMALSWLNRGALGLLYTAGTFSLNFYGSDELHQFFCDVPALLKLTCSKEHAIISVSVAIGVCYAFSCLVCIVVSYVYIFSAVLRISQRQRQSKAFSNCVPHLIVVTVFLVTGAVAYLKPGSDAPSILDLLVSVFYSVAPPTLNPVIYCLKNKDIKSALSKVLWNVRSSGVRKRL
The gist of the method: as §1

Test [4] has as its system O14J1. The gist of the method:
as §1
The source holds these as a separate data set.

In test [5] the test system is O14J1. In short, it runs like this: as §1
This is another data set of the same source.

Structures are written as SMILES. The list shows a part of the results. The calls were merged from several studies; some rest on single wells.

Regarding `C=CCc1ccc(OC(C)=O)c(OC)c1`, the “odorant receptor agonist call” value in the test with O13C5, in the test with O13C7, in the test on O13C9, with O13D1 [1], in the test on O13D1 [2] and in the test with O13F1 was “inactive” throughout. Also, the “odorant receptor agonist call” value in the test with O13G1, with O14A2, in the test with O14AG, in the test on O14CZ, in the test with O14I1 and with O14J1 [3] was “inactive” in each case. In addition, in the test with O14K1, the “odorant receptor agonist call” value was “inactive”. Moreover, in the test on O13J1, the “odorant receptor agonist call” value was “active”.

For the compound `O=CCc1ccccc1`, the “odorant receptor agonist call” value in the test with O13C5, in the test with O13C7, in the test on O13C9, with O13D1 [1], in the test with O13D1 [2] and in the test with O13F1 was “inactive” each time. Besides, the “odorant receptor agonist call” value in the test with O13G1, in the test with O13J1, in the test with O14A2, with O14AG, in the test with O14CZ and in the test with O14I1 was “inactive” throughout. Also, the “odorant receptor agonist call” value with O14J1 [3] and in the test on O14K1 was “inactive” throughout.

With `CCC=CCCO`, the “odorant receptor agonist call” value with O13C5, in the test with O13C7, in the test with O13C9, with O13D1 [1], in the test on O13D1 [2] and with O13F1 was “inactive” in each case. For the same compound, the “odorant receptor agonist call” value in the test on O13G1, in the test with O13J1, with O14A2, in the test on O14AG, with O14CZ and with O14I1 was “inactive” in each case. Moreover, the “odorant receptor agonist call” value in the test on O14J1 [3], in the test on O14J1 [5] and in the test on O14K1 was “inactive” each time. In addition, the “odorant receptor agonist call” value in the test with O14J1 [4] was “active”.

Take `CC12C=CCC1C1CCC3=CC(=O)CCC3(C)C1CC2` (stereo unspecified): the “odorant receptor agonist call” value in the test with O13C5, with O13C7, in the test with O13C9, in the test with O13D1 [1], in the test on O13D1 [2] and in the test on O13F1 was “inactive” throughout. The “odorant receptor agonist call” value in the test with O13G1, in the test with O13J1, in the test with O14A2, in the test with O14AG, with O14CZ and in the test with O14I1 was “inactive” each time. Also, the “odorant receptor agonist call” value in the test on O14J1 [3] and in the test with O14K1 was “inactive” each time.

Regarding `CC(C)C=O`, the “odorant receptor agonist call” value in the test with O13C5, in the test on O13C7, in the test with O13C9, in the test with O13D1 [1], in the test with O13D1 [2] and in the test with O13F1 was “inactive” throughout. Also, the “odorant receptor agonist call” value in the test on O13G1, in the test with O13J1, in the test with O14A2, in the test with O14AG, in the test on O14CZ and with O14I1 was “inactive” in each case. For the same compound, the “odorant receptor agonist call” value in the test on O14J1 [3] and in the test with O14K1 was “inactive” in each case.

As for `CC(C)(C)c1ccc(CCC=O)cc1`, the “odorant receptor agonist call” value in the test on O13C5, in the test with O13C7, with O13C9, with O13D1 [1], in the test with O13D1 [2] and with O13F1 was “inactive” each time. For the same compound, the “odorant receptor agonist call” value in the test with O13G1, with O13J1, in the test with O14A2, in the test on O14AG, with O14CZ and in the test on O14I1 was “inactive” in each case. For the same compound, the “odorant receptor agonist call” value in the test with O14J1 [3] and in the test with O14K1 was “inactive” each time.
